Results: patent US8048862B2, “Macrocyclic inhibitors of hepatitis C virus replication” (priority 2008, dated 2011)
Entries after “also recorded” stand apart in the source; their conditions may differ. For at least one compound, name, drawing or mass did not settle the structure.

Tested on: hepatitis C virus (HCV RNA levels), chronic hepatitis C genotype 1
Assay: ITMN-191 combination therapy with SOC (PEG-IFN alfa-2a and ribavirin), 14 days, effect on HCV viral load in patients
Type: in vivo
Conditions: all q12h and q8h cohorts in combination with SOC
Excerpt: This is a double-blind, placebo-controlled, multicenter study in treatment-naïve patients with chronic hepatitis C genotype 1 infection. All patients receive standard of care (SOC) treatment with PEG-IFN alfa-2a and weight-based ribavirin in accordance with the product labeling. In addition to this standard of care treatment, patients are randomized to receive either ITMN-191 or matching placebo, administered in the fed state, for 14 complete days, and a single dose on Day 15. PEG-IFN alfa-2a and ribavirin is provided from Day 0 and following the completion of study drug treatment on Day 15 through Day 44. No other HCV therapies are permitted prior to Day 44. All patients receive SOC and then are administered a pill containing either ITMN-191 or placebo. The ITMN-191 was administered in the form of its sodium salt. […]
Over the course of the study, blood samples are obtained for clinical laboratory analysis and for PK (pharmokinetics) and VK (viral kinetics). […] To monitor potential cardiac toxicity, cardiac troponin are assessed every day during the treatment period.
End of treatment (EOT) and nadir HCV RNA levels were used to define virologic rebound, continual decline, and plateau response patterns. […] The HCV RNA levels were determined by Roche COBAS Taqman HCV/HPS test, v2.0. […]

Q: Which viral rebound does the source give for `CC(C)(C)OC(=O)N[C@H]1CCCCC/C=C\[C@@H]2C[C@@]2(C(=O)NS(=O)(=O)C2CC2)NC(=O)[C@@H]2C[C@@H](OC(=O)N3Cc4cccc(F)c4C3)CN2C1=O` [ITMN-191] here?
A: no evidence of the viral rebound; also recorded: no viral rebound observed
